## Results of single-concentration screens

Data taken from ChEMBL document CHEMBL3988442, “University of Dundee, Small-Polar-MMV Screening Library” (2021).

Results are given as percent effect. The controls that fix the scale are not given in the record; negative values are as filed. The compounds are a random part of those screened.

Mtb cholesterol medium: 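Whole-cell growth test on Mycobacterium tuberculosis, read after 4 days in a medium based on cholesterol and the lipid DPPC; the read-out is not stated. Tested at 500 µM. Higher reads as more growth inhibition (inferred: compounds with an IC50 in retests scored well above the rest). Size under these conditions: about 18,000 compounds, about 900 of them at 50% or above in at least one test.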
Mtb glucose medium: 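Phenotypic screen: M. tuberculosis growth, glucose 7H9 medium, 3 days; the read-out is not stated. Tested at 500 µM. The record gives no direction; compounds that gave an IC50 in retests scored well above the rest, so higher reads as more growth inhibition. Of about 18,000 compounds tested this way, about 1,400 (7.9%) reached 50% or more in at least one test.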

| compound | Mtb cholesterol medium | Mtb glucose medium |
|---|---|---|
| `COc1ccc(C(O)CNC2CCSCC2)cc1` (stereo not drawn) | 22.16 | 15.69 |
| `CC(C)(C#N)C(=O)N1CCN(CC(O)C(C)(C)C)CC1` (stereo not drawn) | 17.02 | -1.278 |
| `CSCC(=O)NC(C1CCNCC1)[C@H]1C[C@@H](O)C1` (stereo partly drawn) | -0.182 | -11.31 |
| `Cc1ccccc1OCC(=O)NC1CCCCNC1=O` (stereo not drawn) | 13.5 | 40.31 |
| `CN1CCCCC1C(=O)N1CCOC2(CCCC2)C1` (stereo not drawn) | 2.335 | 1.385 |
| `CC(=O)c1c(F)cccc1N1CCOCC1` | 51.26 | 18.86 |
| `OCC(O)CSCCN1CCCc2ccccc21` (stereo not drawn) | 28.81 | 33.42 |
| `CS(=O)(=O)N1CCN(C(=O)Nc2cccnc2)CC1` | -24.01 | -5.06 |
| `CCN(CCN(C)C)C(=O)c1cccn1C1CC1` | 10.23 | 6.22 |
| `COCC(=O)N1CCCN(Cc2ccncc2Cl)CC1` | 0.01372 | 7.96 |
| `FC(F)COCCn1nnc(-c2ccsc2)n1` | 89.64 | 80.77 |
| `CCC(CO)Nc1ncc(C(F)(F)F)cc1Cl` (stereo not drawn) | 63.31 | 49.42 |
| `NCc1csc2nccn12` | -18.24 | -0.4396 |
| `CC1CCCN(CCNC(=O)CN(C)S(C)(=O)=O)C1` (stereo not drawn) | -8.09 | -5.892 |
| `CS(=O)(=O)NCCC(=O)NCc1cc(F)cc(F)c1` | 4.337 | 9.749 |
| `O=C(NCC1CCCOC1)c1ccnc2ccccc12` (stereo not drawn) | 3.001 | 23.35 |
| `COCC1CCN(C(=O)C(CN)CC(C)C)CC1` (stereo not drawn) | 3.089 | 12.94 |
| `CCN1CCCC1CNC(=O)C1CCNCC1` (stereo not drawn) | -16.17 | 0.8508 |
| `N#CCCNC(=O)CN1CCn2ccnc2C1` | 7.94 | 9.872 |
| `CCC1CN(CCCOC)CCN1CCOC` (stereo not drawn) | -6.99 | 8.29 |
| `CC1CCCN(Cc2nc(N)nc(N(C)C)n2)C1` (stereo not drawn) | 38.23 | -12.36 |
| `CC1(COC(=O)c2cccnc2)CCCO1` (stereo not drawn) | -3.848 | 5.267 |
| `O=C(Nc1nncs1)c1cccc(O)c1` | -8.338 | 25.98 |
| `Cc1cccc(CN(C)CC(=O)N(C)C)c1` | 3.805 | 10.92 |
| `Cc1ccc(CCNC(=O)CC2C=CS(=O)(=O)C2)o1` (stereo not drawn) | -1.247 | 14.85 |
| `CN1CCC(Nc2cc(C#N)c3ccccc3n2)C1=O` (stereo not drawn) | 3.68 | -2.982 |
| `COC(=O)c1snc(-c2ccccc2)c1N` | 49.91 | 30.26 |
| `CNC(=O)CS(=O)(=O)c1nccn1C` | -1.961 | 3.884 |
| `CC(=O)N(Cc1ncc(C)o1)C1CCNC1` (stereo not drawn) | -33.91 | -11.1 |
| `CN(C(=O)NCCCC(C)(C)CO)C1CCC1` | 19.74 | 19.78 |
| `O=C(CCC(F)(F)F)N[C@H]1CCCNC1` | -11.11 | -3.295 |
| `C[C@H](O)CNC(=O)c1ccc(OCC(F)F)cc1` | -10.83 | -0.1073 |
| `CC(C)(C)C(=O)N1CCCN2CCCC2C1` (stereo not drawn) | -7.265 | -3.017 |
| `CCCc1c(C(=O)N2CCC2)[nH]c(C)c1C(=O)OC` | -6.316 | -4.939 |
| `CCC(O)CCNS(=O)(=O)c1cnc2ccccc2c1` (stereo not drawn) | -3.772 | -3.254 |
| `COc1ccc(C2NCCNC2=O)cc1` (stereo not drawn) | -18.28 | -0.5437 |
| `COC(CN)CC(N)=O` (stereo not drawn) | -1.831 | 8.628 |
| `CCN(C(=O)NCc1sccc1C)C(C)CS(C)(=O)=O` (stereo not drawn) | -9.098 | 6.731 |
| `CC(C)Oc1ccc(CN)cc1` | 67.46 | 65.13 |
| `O=C(NCCCn1ncc2ccccc21)C1CC1` | 60.62 | 67.65 |
| `CCN1CCCC1CNC(=O)c1cc(Cl)ccn1` (stereo not drawn) | -1.501 | 6.169 |
| `Cc1cccc(NC(=O)Cn2cnnn2)c1` | -20.02 | 3.502 |
| `Cn1cc(CCNC(=O)NCC2(C)CCCS2)cn1` (stereo not drawn) | 10.27 | 14.7 |
| `O=C(CNc1ccccc1Cl)Nc1cccnc1O` | 2.905 | 18.51 |
| `CCc1ccc(C(=O)NC(C)C(N)=O)o1` (stereo not drawn) | -0.6203 | 9.16 |
| `CCN(C)S(=O)(=O)N(CC)CC(O)c1ccc(C)cc1` (stereo not drawn) | 61.23 | 72.48 |
| `COCCN(C)C(=O)Nc1cccc(Cl)c1` | 53.99 | 53.69 |
| `CC1(C)CN(C(=O)c2cc[nH]n2)CC2(CCCC2)O1` | -3.989 | 8.733 |
| `N#CCC(=O)NCCNC(=O)c1ccccc1` | -19.98 | -11.39 |
| `CC1CN(CCS(C)(=O)=O)CCN1Cc1nccn1C` (stereo not drawn) | 13.67 | 11.11 |
| `CN1CCCC(CCC(=O)NCCc2cnccn2)C1` (stereo not drawn) | -7.738 | -7.9 |
| `CNc1cccnc1CN` | 2.62 | 0.9683 |
| `NC(=O)NC(=O)CCNS(=O)(=O)c1ccccc1Cl` | -4.067 | -9.829 |
| `CN(C)c1ccc(-c2[nH][nH]c(=O)c2CCCN)cc1` | -2.978 | -1.02 |
| `Cc1nccn1CCCN1CCOCC1CO` (stereo not drawn) | 0.7045 | 11.2 |
| `CC(=O)Nc1cccc(C(C)O)c1` (stereo not drawn) | -7.766 | -8.474 |
| `O=C(CCN1CCN(c2ccccn2)CC1)NC1CC1` | 56.41 | 10.89 |
| `CCOc1ccc(CN2CCNC(=O)CC2)cc1CO` | -0.0235 | 0.3979 |
| `CN(C)C(CN)C1CC1` (stereo not drawn) | -2.638 | 5.846 |
| `Cn1ccnc1C1CCCNC1` (stereo not drawn) | 9.127 | 15.91 |
| `Cc1ccccc1CSCC(=O)N[C@@H]1CCNC[C@H]1O` | -5.225 | 2.322 |
| `COc1ccccc1N(C)C(=O)Cn1cnnn1` | -1.938 | -1.26 |
| `Cc1ncncc1C(=O)N1CCC2(CCO2)CC1` | 3.684 | -0.944 |
| `CC(C(=O)N1CCOCC1)N1CCC(CO)CC1` (stereo not drawn) | 5.311 | 3.161 |
| `NCCNC(=O)CC(N)c1ccccc1` (stereo not drawn) | -22.44 | -7.255 |
| `Cc1cc(CO)nn1C` | 3.164 | 5.836 |
| `CCn1c(CN2CCN(C)CC2)nnc1[C@H]1C[C@@H](N)C1` | -12.31 | -12.13 |
| `O=C(Nc1cc(Cl)ccn1)C1CC1` | 30.7 | 18.59 |
| `Cc1n[nH]c(C)c1CCN(C)C(=O)C(O)CC(C)C` (stereo not drawn) | 1.108 | -13.05 |
| `Cc1ncc(CSC2CCN(C)C2=O)s1` (stereo not drawn) | -0.1164 | -4.693 |
| `COc1ccc(-c2ccnc(CO)c2)c(OC)c1` | 23.33 | 43.99 |
| `Cc1ccnc(NCCNC(=O)Cc2nonc2C)c1` | 6.642 | 5.843 |
| `Cc1cc2c(cc1CN)OCCO2` | 26.07 | 17.27 |
| `NCc1ccc(-n2ccnc2)cc1` | -12.1 | 1.938 |
| `CCc1ccsc1C(=O)NCCCN1CCN(C)CC1` | 8.161 | 22.64 |
| `CCc1cc(=O)[nH]c(C2(N)CCCC2)n1` | -4.162 | 5.916 |
| `NCCC(=O)N1CCN(c2ccccn2)CC1` | 9.651 | 18.53 |
| `Cc1cnc(NCc2cccn2C)s1` | -9.21 | -2.998 |

The first 6 entries again:

compound,Mtb cholesterol medium,Mtb glucose medium
COc1ccc(C(O)CNC2CCSCC2)cc1 (stereo not drawn),22.16,15.69
CC(C)(C#N)C(=O)N1CCN(CC(O)C(C)(C)C)CC1 (stereo not drawn),17.02,-1.278
CSCC(=O)NC(C1CCNCC1)[C@H]1C[C@@H](O)C1 (stereo partly drawn),-0.182,-11.31
Cc1ccccc1OCC(=O)NC1CCCCNC1=O (stereo not drawn),13.5,40.31
CN1CCCCC1C(=O)N1CCOC2(CCCC2)C1 (stereo not drawn),2.335,1.385
CC(=O)c1c(F)cccc1N1CCOCC1,51.26,18.86